Source: PubChem BioAssay AID493014 (National Center for Advancing Translational Sciences (NCATS), 2011)
The list shows a part of the results. Further columns of the screen follow, without active or inactive calls. Most of these compounds were active or inconclusive in the main read-out, so they are no random draw. The note in brackets gives the kind of curve behind each potency; many fits are weak.

Experiment: qHTS Assay to Find Inhibitors of Chronic Active B-Cell Receptor Signaling
Conditions: ABC-DLBCL IkBa-CBG/CBR reporter, luminescence ratio (green luciferase fused to IkBa over red control in TMD8 lymphoma cells), 4 h
Outline: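 Doxycycline induced both beetle luciferases in TMD8 lymphoma cells; IKK-driven degradation limits the IkappaBalpha-fused green signal, while red luminescence normalises for cell number and nonspecific effects. Compounds tested up to 46 uM, 4 hrs.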

[1] = measured here: CBR red luminescence, cell number
[2] = measured here: IkBa-CBG green luminescence

Row | SMILES | AC50 [1] | AC50 [2]
1 | Cc1nccn1Cc1cccc2ccccc12 | 2.06 µM [falling, partial curve, poor fit] | –
2 | COc1ccc(CCNC(=O)CCn2c(=O)c3cccn3c3ccc(F)cc32)c(OC)c1OC | 0.794 µM [rising, full curve] | –
3 | COc1ccccc1-c1nnc(SCC(=O)Nc2c(Cl)cccc2Cl)o1 | 0.103 µM [rising, full curve, poor fit] | –
4 | Cc1nn2c(NCc3ccccn3)c3c(nc2c1-c1ccccc1)CCC3 | 3.55 µM [rising, partial curve] | –
5 | C/C(NC(=O)c1ccccc1)=C1/C(=O)CC2C1C2(C)C (stereo not drawn) | 7.08 µM [rising, full curve, poor fit] | –
6 | Clc1ccccc1-c1nnc(-c2ccc3c(c2)OCO3)o1 | 25.1 µM [falling, single point] | –
7 | CCCCNC(=O)/C(C#N)=C/c1ccc(F)cc1F | 35.5 µM [falling, single point] | –
8 | O=[N+]([O-])c1cccnc1Sc1n[nH]c(-c2ccc(Cl)cc2)n1 | 11.2 µM [falling, single point] | –
9 | CCOC(=O)c1cnc2ccc(F)cc2c1Nc1ccc2c(c1)OCCO2 | 20.6 µM [falling, single point] | –
10 | CCOC(=O)C1CCN(C(=O)c2cc3cc4ccc(C)cc4nc3o2)CC1 | 1.12 µM [falling, full curve] | –
11 | CCN(CC)C(=O)C1CCCN(c2ccc([N+](=O)[O-])cc2[N+](=O)[O-])C1 (stereo not drawn) | 35.5 µM [falling, single point] | –
12 | Oc1ccc(/C=N/Nc2ccc(Cl)nn2)c(O)c1O | 15.8 µM [rising, partial curve, poor fit] | –
13 | Cc1ccc(-n2nnnc2Sc2ccc(S(=O)(=O)NCCN(C)C)cc2[N+](=O)[O-])cc1 | 4.61 µM [falling, partial curve] | –
14 | Cc1nc2ccc(-c3nc4ccccc4[nH]3)cc2[nH]1 | 8.91 µM [falling, partial curve] | –
15 | CCOc1ccc(NC(=O)NC(C)c2ccc3c(c2)OCO3)cc1 (stereo not drawn) | 10 µM [rising, partial curve] | –
16 | CCn1ncc(Br)c1C(=O)Nc1cc([N+](=O)[O-])ccc1C | 0.92 µM [rising, full curve, poor fit] | –
17 | CCCNc1nc2c(c(=O)n(C)c(=O)n2C)n1Cc1cccc(C)c1 | 35.5 µM [falling, single point] | –
18 | Cc1ccc(C(C(=O)NC(C)(C)C)N(CCCN2CCOCC2)C(=O)c2ccc(-c3ccccc3)[nH]2)o1 (stereo not drawn) | 35.5 µM [rising, single point] | –
19 | CC1(C)CC(=O)C2=C(C1)N=C1c3ccccc3C(=O)C1C2c1ccc(Cl)cc1 (stereo not drawn) | 23.1 µM [falling, partial curve, poor fit] | –
20 | Cc1c(C(C)(C)O)[nH]c2cc(C(F)(F)F)ccc12 | 11.2 µM [rising, partial curve, poor fit] | –
21 | O=C(O)c1ccc(CN(c2ccccc2)S(=O)(=O)c2ccccc2)cc1 | 28.2 µM [rising, single point] | –

Single records, as listed above:
C/C(NC(=O)c1ccccc1)=C1/C(=O)CC2C1C2(C)C (stereo not drawn) in the list: AC50 [1]: 7.08 µM [rising, full curve, poor fit]
CCOC(=O)C1CCN(C(=O)c2cc3cc4ccc(C)cc4nc3o2)CC1 in the list: AC50 [1]: 1.12 µM [falling, full curve]

Further structures:

Row | SMILES | AC50 [1] | AC50 [2]
22 | O=C1OC(Nc2ccc3c(c2)OCO3)c2ccccc21 (stereo not drawn) | 5.01 µM [falling, partial curve, poor fit] | –
23 | Cc1ccc(N=Nc2ccc(O)c3ncccc23)cc1 | 5.17 µM [rising, full curve] | 5.17 µM [falling, partial curve, poor fit]
24 | COC(=O)c1cc(C(=O)NCCN2C(=O)S/C(=C\c3cccs3)C2=O)cc([N+](=O)[O-])c1 | 1.64 µM [rising, full curve, poor fit] | –
25 | CCOc1c(Cl)cc(/C=N/O)cc1OC | 29.1 µM [rising, single point] | –
26 | CN1/C(=C\C=C2/C(=O)Oc3ccccc3C2=O)C(C)(C)c2ccccc21 | 6.51 µM [falling, partial curve] | –
27 | Cc1cccc(NS(=O)(=O)c2ccc(C(=O)N3CCN(c4ccccc4O)CC3)cc2)c1C | 14.1 µM [falling, partial curve, poor fit] | –
28 | O=C(O)/C=C1\NC(=O)c2ccccc21 | 35.5 µM [rising, partial curve, poor fit] | –
29 | CCS(=O)(=O)N1Cc2ccccc2CC1C(=O)Nc1cccc(C)c1 (stereo not drawn) | 7.94 µM [falling, partial curve, poor fit] | –
30 | CCNC(=O)NC(=O)COC(=O)CNC(=O)COc1ccccc1 | 0.517 µM [falling, full curve, poor fit] | –
31 | COc1cc(CC(=O)N/N=C/c2ccccc2)c([N+](=O)[O-])cc1OC | 1.16 µM [falling, full curve] | –
32 | CN(C)c1cccc2c(S(=O)(=O)Nc3ccccn3)cccc12 | 14.6 µM [rising, single point] | –
33 | Clc1ccc2nc(-c3ccccc3)nc(C(Cl)Cl)c2c1 | 6.31 µM [rising, full curve, poor fit] | 3.98 µM [falling, full curve]
34 | COc1ccc(Cc2nc3ccc(C(=O)NC(C)Cc4ncccc4C)cc3o2)cc1OC (stereo not drawn) | 22.4 µM [falling, single point] | –
35 | Cc1ccc(CNC(=O)CCCc2cn(C)c3ccccc23)cc1 | 15.8 µM [falling, single point] | –
36 | Nc1nnnn1/N=C/c1ccccc1OCc1ccccc1 | 0.731 µM [rising, full curve, poor fit] | –
37 | CCOCc1c(C(=O)NCc2ccccc2CN2CCCC2)oc2ccccc12 | 6.51 µM [falling, full curve] | –
38 | COc1ccc(NC(=O)c2ccc3c(c2)C(=O)N(CC2CCCO2)C3=O)cc1 (stereo not drawn) | 35.5 µM [falling, partial curve, poor fit] | –
39 | CCCCN(C(=O)Cn1nnc2ccccc21)C(C(=O)NCCOC)c1ccccc1 (stereo not drawn) | 23.1 µM [rising, partial curve, poor fit] | –
40 | CCOc1ccc(S(=O)(=O)NCC(=O)N(C)Cc2cccnc2)cc1 | 8.2 µM [falling, partial curve] | –
41 | CCc1cc2c(=O)c(Oc3ccccc3)c(C)oc2cc1O | 25.1 µM [rising, single point] | –
